Source: patent US20050064430A1
Results are given in words; binding and its absence hold for the method and conditions named. For part of these data: Binding seen in cells or lysates may run through a third protein. Some results given as binding are weak or reduced against the parent protein; the word gives no strength.

How the values were obtained:
[1] = biological target: recombinant Rab3 GEP (from insect cells) (UniProt O08873); assay: Western blotting (legend of FIG. 4)
[2] = biological target: recombinant Rab3 GEP (from insect cells) (UniProt O08873); assay: recombinant Rab3 GEP incubated with recombinant rabconnectin-3β on antibody/protein A Sepharose beads; SDS-PAGE, Coomassie staining or Western blot
[3] = biological target: recombinant Rab3 GEP (from insect cells) (UniProt O08873); assay: conclusion from the bead binding assay and co-immunoprecipitation

Measured: binding

recombinant rabconnectin-3β (pFastBac HTa rabconnectin-3β, baculovirus, High Five insect cells) (from UniProt Q9Y4E6 1-1490)
binds: all assays above
